Results reported in paper PMC12422955.
Results are given in words; binding and its absence hold for the method and conditions named.

Amino acid sequences for entries named in this document (tags omitted). A change or cut given only in a name is not applied to a line headed by its entry. Residues count along the entry.
UniProt Q62609: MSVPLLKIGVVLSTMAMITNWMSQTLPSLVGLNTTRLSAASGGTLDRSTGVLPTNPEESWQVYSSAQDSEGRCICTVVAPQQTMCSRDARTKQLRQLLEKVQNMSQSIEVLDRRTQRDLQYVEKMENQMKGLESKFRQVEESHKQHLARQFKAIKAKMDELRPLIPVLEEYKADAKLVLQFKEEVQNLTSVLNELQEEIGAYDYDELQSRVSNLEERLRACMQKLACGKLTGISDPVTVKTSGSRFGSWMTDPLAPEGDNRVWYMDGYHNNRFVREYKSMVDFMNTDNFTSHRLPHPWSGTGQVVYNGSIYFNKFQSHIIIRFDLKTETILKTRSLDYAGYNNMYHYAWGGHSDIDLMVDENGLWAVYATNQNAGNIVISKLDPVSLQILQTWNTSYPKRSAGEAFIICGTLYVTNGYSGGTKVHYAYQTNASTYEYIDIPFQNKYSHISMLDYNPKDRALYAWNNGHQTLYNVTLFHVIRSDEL
UniProt P19491, residues 22-883: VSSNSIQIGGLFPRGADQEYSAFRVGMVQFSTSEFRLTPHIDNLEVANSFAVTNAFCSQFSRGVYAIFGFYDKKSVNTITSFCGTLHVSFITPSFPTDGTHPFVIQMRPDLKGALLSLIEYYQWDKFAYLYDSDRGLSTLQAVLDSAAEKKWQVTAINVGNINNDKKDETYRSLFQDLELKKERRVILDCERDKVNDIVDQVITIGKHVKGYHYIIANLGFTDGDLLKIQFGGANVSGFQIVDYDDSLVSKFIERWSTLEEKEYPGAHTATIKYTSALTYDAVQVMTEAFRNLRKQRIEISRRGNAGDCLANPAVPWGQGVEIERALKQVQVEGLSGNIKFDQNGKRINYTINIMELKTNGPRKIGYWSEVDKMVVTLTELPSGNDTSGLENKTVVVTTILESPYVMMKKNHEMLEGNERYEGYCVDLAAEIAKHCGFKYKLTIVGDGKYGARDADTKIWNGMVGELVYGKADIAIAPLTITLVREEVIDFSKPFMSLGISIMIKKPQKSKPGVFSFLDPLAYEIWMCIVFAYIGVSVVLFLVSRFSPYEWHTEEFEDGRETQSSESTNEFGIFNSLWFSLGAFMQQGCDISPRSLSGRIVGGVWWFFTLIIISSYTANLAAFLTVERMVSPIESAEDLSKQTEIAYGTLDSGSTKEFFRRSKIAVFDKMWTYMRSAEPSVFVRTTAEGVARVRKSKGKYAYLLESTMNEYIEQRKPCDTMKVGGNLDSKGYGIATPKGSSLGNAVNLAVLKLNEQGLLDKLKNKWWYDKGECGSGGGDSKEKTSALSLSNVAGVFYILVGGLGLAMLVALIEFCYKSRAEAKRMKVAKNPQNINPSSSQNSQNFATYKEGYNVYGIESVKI
UniProt P19492, residues 23-888: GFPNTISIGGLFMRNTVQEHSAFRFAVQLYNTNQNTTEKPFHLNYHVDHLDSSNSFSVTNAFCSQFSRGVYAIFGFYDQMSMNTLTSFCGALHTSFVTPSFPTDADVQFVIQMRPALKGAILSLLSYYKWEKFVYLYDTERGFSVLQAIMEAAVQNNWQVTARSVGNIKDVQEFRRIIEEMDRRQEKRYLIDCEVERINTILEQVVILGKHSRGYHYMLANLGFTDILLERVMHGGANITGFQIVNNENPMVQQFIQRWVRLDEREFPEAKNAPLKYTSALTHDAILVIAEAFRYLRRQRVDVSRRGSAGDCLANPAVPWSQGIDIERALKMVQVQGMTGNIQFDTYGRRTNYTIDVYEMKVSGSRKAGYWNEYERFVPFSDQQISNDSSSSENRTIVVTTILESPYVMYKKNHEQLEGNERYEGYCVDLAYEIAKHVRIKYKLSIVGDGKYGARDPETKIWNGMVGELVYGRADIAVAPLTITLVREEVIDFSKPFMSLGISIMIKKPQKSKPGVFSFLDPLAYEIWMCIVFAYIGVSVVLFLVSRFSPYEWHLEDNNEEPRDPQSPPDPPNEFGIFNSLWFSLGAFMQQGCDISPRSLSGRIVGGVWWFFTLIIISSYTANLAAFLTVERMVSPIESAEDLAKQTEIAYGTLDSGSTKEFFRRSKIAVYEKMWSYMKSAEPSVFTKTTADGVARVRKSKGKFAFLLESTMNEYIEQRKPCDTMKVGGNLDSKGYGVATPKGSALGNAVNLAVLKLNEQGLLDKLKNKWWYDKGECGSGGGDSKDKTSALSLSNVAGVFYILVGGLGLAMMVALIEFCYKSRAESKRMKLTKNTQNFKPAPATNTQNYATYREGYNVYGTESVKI

Target: dNOE1–mScarlet (dimeric NOE1 construct, residues 205-481 with five GCN4 residues) (rat) (UniProt Q62609)
Assay: SEC; FSEC, Superose 6; 5 nM dNOE1–mScarlet with 200 nM GluA1, GluA2 or GluA3 or 15–150 nM GluA4, 10 min; 20 mM Tris pH 8.0, 150 mM NaCl, 2 μM ZK, 10 μM (R,R)-2b, 0.075% digitonin; mScarlet fluorescence; both purified

Row | Substance | binding
1 | recombinant homomeric GluA2 receptor (C-terminal GFP and Strep tag) (from UniProt P19491 22-883) | no binding (tested: 200 nM GluA2 with 5 nM dNOE1–mScarlet)
2 | recombinant homomeric GluA3 receptor (C-terminal GFP and Strep tag) (from UniProt P19492 23-888) | no binding (tested: 200 nM GluA3 with 5 nM dNOE1–mScarlet)
